Test results reported in the supplement of paper PMC11098740.
Some of the results follow. Repeats are few or missing, and single values can be far off.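 The assay uses a mixed pool of 41 HAP1 clones in which 61 cancer-associated proteins bear intron-inserted fluorescent tags, and clones are distinguished by image pattern. Results are compared against DMSO-treated control wells, and the BRD4 degrader dBET6 is the positive control.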

Target: BRD4 (intron 10 mScarlet tag, HAP1) (UniProt O60885)
Assay: BRD4 median nuclear fluorescence intensity change vs DMSO (log2 fold change); higher = more BRD4 protein
Settings: 6 h

Row | Compound | BRD4 median nuclear fluorescence intensity change (log2)
1 | CC[C@]1(O)C[C@@H]2CN(CCc3c([nH]c4ccccc34)[C@@](C(=O)OC)(c3cc4c(cc3OC)N(C)[C@H]3[C@@](O)(C(=O)OC)[C@H](OC(C)=O)[C@]5(CC)C=CCN6CC[C@]43[C@@H]65)C2)C1 [vinblastine (sulfate)] (10 µM) | 0.118
2 | CCCCN(CCCC)CC(O)c1cc(Cl)cc2c1-c1ccc(Cl)cc1/C2=C/c1ccc(Cl)cc1 (configuration not stated) [lumefantrine] (10 µM) | 0.128
3 | COc1ccccc1OCC(O)CN1CCN(CC(=O)Nc2c(C)cccc2C)CC1 (configuration not stated) [ranolazine] (10 µM) | 0.03
4 | CS(=O)(=O)OCCCCOS(C)(=O)=O [busulfan] (20 µM) | 0.0615
5 | Cc1cc2cc3c(C)cc(=O)oc3c(C)c2o1 [trioxsalen] (10.0007 µM) | 0.0521
6 | CCCN(CCC)S(=O)(=O)c1ccc(C(=O)O)cc1 [probenecid] (10 µM) | -0.0129
7 | O=C1CC2(CCCC2)C(O)C(=O)N1CCCCN1CCN(c2ncccn2)CC1 (configuration not stated) [6-hydroxybuspirone] (10 µM) | 0.184
8 | NS(=O)(=O)c1cc(Cl)c(Cl)c(S(N)(=O)=O)c1 [dichlorphenamide] (10 µM) | 0.0335
9 | CC1(C)CNc2cc(NC(=O)c3cccnc3NCc3ccncc3)ccc21 [motesanib] (10 µM) | 0.00859
10 | CCN(CC)C(=S)SSC(=S)N(CC)CC [disulfiram] (10.03611718 µM) | 0.0751
11 | CCN(CC)C(=O)N1CCN(C)CC1 [diethylcarbamazine] (9.99954 µM) | -0.0152
12 | NNC(=O)c1ccncc1 [isoniazid] (10 µM) | 0.0232

2 entries from above in another layout.
O=C1CC2(CCCC2)C(O)C(=O)N1CCCCN1CCN(c2ncccn2)CC1 (configuration not stated) [6-hydroxybuspirone] (10 µM)
  BRD4 median nuclear fluorescence intensity change (log2): 0.184
NS(=O)(=O)c1cc(Cl)c(Cl)c(S(N)(=O)=O)c1 [dichlorphenamide] (10 µM)
  BRD4 median nuclear fluorescence intensity change (log2): 0.0335
